{"source": "PubChem BioAssay AID1224830 (NIAID, 2016)", "test": "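Genes whose knock-down alters the TNF-alpha reporter response to LPS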 (primary screen)", "cell system": "human THP-1 monocytic leukaemia cells, TNF dual-luciferase reporter clone, PMA-differentiated to macrophage-like cells", "reagents": "siRNA pool against human genes, 50 nM", "timing": "LPS for 4 h, given about 3 days after siRNA transfection", "conditions": "bacterial LPS (TLR4 ligand), 10 ng/ml", "detection": "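TNF firefly reporter luminescence divided by renilla, normalised to the plate median, then turned into a robust z-score for each replicate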", "direction": "TNF reporter robust z-score: higher = stronger TNF reporter response to LPS", "rule for the call": "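a well is active when its z-score exceeds 2.8 or falls below -1.5; control wells carry no call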", "note": "Here is one part, drawn at random, of about 18,000 deposited reagents. Over the whole deposit, about 2,900 (16%) got an active call. 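Calls are made per well; low scores hint the gene aids the LPS response, high scores that it dampens it.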 Entries without a mark were called inactive. Repeated entries: four replicate wells of each siRNA pool."}
{"gene symbol": "RUFY1", "PubChem SID": "SID315459714", "TNF reporter robust z-score": 0.58}
{"gene symbol": "RUFY1", "PubChem SID": "SID315459714", "TNF reporter robust z-score": -0.71}
{"gene symbol": "RUFY1", "PubChem SID": "SID315459714", "TNF reporter robust z-score": 2.43}
{"gene symbol": "RUFY1", "PubChem SID": "SID315459714", "TNF reporter robust z-score": 0.42}
{"gene symbol": "CRYBG1", "PubChem SID": "SID315447254", "TNF reporter robust z-score": -0.76}
{"gene symbol": "CRYBG1", "PubChem SID": "SID315447254", "TNF reporter robust z-score": -0.71}
{"gene symbol": "CRYBG1", "PubChem SID": "SID315447254", "TNF reporter robust z-score": -0.86}
{"gene symbol": "CRYBG1", "PubChem SID": "SID315447254", "TNF reporter robust z-score": -0.69}
{"gene symbol": "PINK1", "PubChem SID": "SID315459071", "TNF reporter robust z-score": -0.47}
{"gene symbol": "PINK1", "PubChem SID": "SID315459071", "TNF reporter robust z-score": -0.61}
{"gene symbol": "PINK1", "PubChem SID": "SID315459071", "TNF reporter robust z-score": -0.19}
{"gene symbol": "PINK1", "PubChem SID": "SID315459071", "TNF reporter robust z-score": -0.27}
{"gene symbol": "PRLR", "PubChem SID": "SID315450840", "TNF reporter robust z-score": 1.02}
{"gene symbol": "PRLR", "PubChem SID": "SID315450840", "TNF reporter robust z-score": 1.51}
{"gene symbol": "PRLR", "PubChem SID": "SID315450840", "TNF reporter robust z-score": 1}
{"gene symbol": "PRLR", "PubChem SID": "SID315450840", "TNF reporter robust z-score": 0.03}
{"gene symbol": "OR2W1", "PubChem SID": "SID315455841", "TNF reporter robust z-score": -1.13}
{"gene symbol": "OR2W1", "PubChem SID": "SID315455841", "TNF reporter robust z-score": -1.07}
{"gene symbol": "OR2W1", "PubChem SID": "SID315455841", "TNF reporter robust z-score": 0.36}
{"gene symbol": "OR2W1", "PubChem SID": "SID315455841", "TNF reporter robust z-score": 0.94}
{"gene symbol": "ARRB1", "PubChem SID": "SID315447411", "TNF reporter robust z-score": 0.38}
{"gene symbol": "ARRB1", "PubChem SID": "SID315447411", "TNF reporter robust z-score": 1.05}
{"gene symbol": "ARRB1", "PubChem SID": "SID315447411", "TNF reporter robust z-score": -0.16}
{"gene symbol": "ARRB1", "PubChem SID": "SID315447411", "TNF reporter robust z-score": 0.51}
{"gene symbol": "FCHSD2", "PubChem SID": "SID315453636", "TNF reporter robust z-score": -1.19}
{"gene symbol": "FCHSD2", "PubChem SID": "SID315453636", "TNF reporter robust z-score": -0.68}
{"gene symbol": "FCHSD2", "PubChem SID": "SID315453636", "TNF reporter robust z-score": -1.46}
{"gene symbol": "FCHSD2", "PubChem SID": "SID315453636", "TNF reporter robust z-score": -0.53}
{"gene symbol": "SAP18", "PubChem SID": "SID315453975", "TNF reporter robust z-score": "-1.9 (active)"}
{"gene symbol": "SAP18", "PubChem SID": "SID315453975", "TNF reporter robust z-score": -0.58}
{"gene symbol": "SAP18", "PubChem SID": "SID315453975", "TNF reporter robust z-score": -0.9}
{"gene symbol": "SAP18", "PubChem SID": "SID315453975", "TNF reporter robust z-score": -0.57}
{"gene symbol": "KIF13A", "PubChem SID": "SID315458790", "TNF reporter robust z-score": -0.93}
{"gene symbol": "KIF13A", "PubChem SID": "SID315458790", "TNF reporter robust z-score": -0.81}
{"gene symbol": "KIF13A", "PubChem SID": "SID315458790", "TNF reporter robust z-score": -1.06}
{"gene symbol": "KIF13A", "PubChem SID": "SID315458790", "TNF reporter robust z-score": 0.43}
{"gene symbol": "MSX1", "PubChem SID": "SID315450050", "TNF reporter robust z-score": -0.35}
{"gene symbol": "MSX1", "PubChem SID": "SID315450050", "TNF reporter robust z-score": 0.22}
{"gene symbol": "MSX1", "PubChem SID": "SID315450050", "TNF reporter robust z-score": 0.12}
{"gene symbol": "MSX1", "PubChem SID": "SID315450050", "TNF reporter robust z-score": 0.08}
{"gene symbol": "PSCA", "PubChem SID": "SID315452369", "TNF reporter robust z-score": 1.31}
{"gene symbol": "PSCA", "PubChem SID": "SID315452369", "TNF reporter robust z-score": 0.41}
{"gene symbol": "PSCA", "PubChem SID": "SID315452369", "TNF reporter robust z-score": -0.05}
{"gene symbol": "PSCA", "PubChem SID": "SID315452369", "TNF reporter robust z-score": -0.17}
{"gene symbol": "ZNF630", "PubChem SID": "SID315458347", "TNF reporter robust z-score": 1.01}
{"gene symbol": "ZNF630", "PubChem SID": "SID315458347", "TNF reporter robust z-score": -0.53}
{"gene symbol": "ZNF630", "PubChem SID": "SID315458347", "TNF reporter robust z-score": 1.22}
{"gene symbol": "ZNF630", "PubChem SID": "SID315458347", "TNF reporter robust z-score": 1.73}
{"gene symbol": "GPHRB", "PubChem SID": "SID315456725", "TNF reporter robust z-score": -0.82}
{"gene symbol": "GPHRB", "PubChem SID": "SID315456725", "TNF reporter robust z-score": -0.81}
{"gene symbol": "GPHRB", "PubChem SID": "SID315456725", "TNF reporter robust z-score": -0.38}
{"gene symbol": "GPHRB", "PubChem SID": "SID315456725", "TNF reporter robust z-score": 0.53}
{"gene symbol": "RNPS1", "PubChem SID": "SID315454457", "TNF reporter robust z-score": -1}
{"gene symbol": "RNPS1", "PubChem SID": "SID315454457", "TNF reporter robust z-score": -0.67}
{"gene symbol": "RNPS1", "PubChem SID": "SID315454457", "TNF reporter robust z-score": -0.54}
{"gene symbol": "RNPS1", "PubChem SID": "SID315454457", "TNF reporter robust z-score": -0.04}
{"gene symbol": "NDRG4", "PubChem SID": "SID315459068", "TNF reporter robust z-score": 0.85}
{"gene symbol": "NDRG4", "PubChem SID": "SID315459068", "TNF reporter robust z-score": -1.33}
{"gene symbol": "NDRG4", "PubChem SID": "SID315459068", "TNF reporter robust z-score": -0.07}
{"gene symbol": "NDRG4", "PubChem SID": "SID315459068", "TNF reporter robust z-score": 0.09}
